Reference: publication doi:10.1101/2022.09.11.507491
No constants are given. Whether binding was seen depends on the method and setting. Binding seen in cells or lysates may run through a third protein. Some results given as binding are weak or reduced against the parent protein; the word gives no strength.

Amino acid sequences for entries named in this document (tags omitted).
UniProt P08753: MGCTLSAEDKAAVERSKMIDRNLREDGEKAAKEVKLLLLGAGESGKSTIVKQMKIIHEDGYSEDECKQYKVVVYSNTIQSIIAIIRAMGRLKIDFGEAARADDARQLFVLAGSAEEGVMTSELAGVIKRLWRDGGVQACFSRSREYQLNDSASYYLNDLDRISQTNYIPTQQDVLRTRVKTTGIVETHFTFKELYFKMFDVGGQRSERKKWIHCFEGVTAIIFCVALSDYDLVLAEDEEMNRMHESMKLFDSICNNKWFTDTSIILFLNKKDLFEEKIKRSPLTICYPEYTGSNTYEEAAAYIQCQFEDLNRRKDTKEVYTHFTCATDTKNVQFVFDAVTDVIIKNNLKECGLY

Legend:
[1] = target: T1, Gα-interacting protein (GAIP) (UniProt P49795); experiment: pull-down
T1 sequence: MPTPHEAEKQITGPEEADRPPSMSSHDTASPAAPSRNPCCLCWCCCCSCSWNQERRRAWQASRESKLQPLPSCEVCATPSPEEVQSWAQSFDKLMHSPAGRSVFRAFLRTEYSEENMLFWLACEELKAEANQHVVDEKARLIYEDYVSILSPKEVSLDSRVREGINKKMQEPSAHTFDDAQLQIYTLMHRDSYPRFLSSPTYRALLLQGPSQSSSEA

[2] = target: T2, activator of G-protein signaling 3 (AGS3) (UniProt Q86YR5); experiment: pull-down
T2 sequence: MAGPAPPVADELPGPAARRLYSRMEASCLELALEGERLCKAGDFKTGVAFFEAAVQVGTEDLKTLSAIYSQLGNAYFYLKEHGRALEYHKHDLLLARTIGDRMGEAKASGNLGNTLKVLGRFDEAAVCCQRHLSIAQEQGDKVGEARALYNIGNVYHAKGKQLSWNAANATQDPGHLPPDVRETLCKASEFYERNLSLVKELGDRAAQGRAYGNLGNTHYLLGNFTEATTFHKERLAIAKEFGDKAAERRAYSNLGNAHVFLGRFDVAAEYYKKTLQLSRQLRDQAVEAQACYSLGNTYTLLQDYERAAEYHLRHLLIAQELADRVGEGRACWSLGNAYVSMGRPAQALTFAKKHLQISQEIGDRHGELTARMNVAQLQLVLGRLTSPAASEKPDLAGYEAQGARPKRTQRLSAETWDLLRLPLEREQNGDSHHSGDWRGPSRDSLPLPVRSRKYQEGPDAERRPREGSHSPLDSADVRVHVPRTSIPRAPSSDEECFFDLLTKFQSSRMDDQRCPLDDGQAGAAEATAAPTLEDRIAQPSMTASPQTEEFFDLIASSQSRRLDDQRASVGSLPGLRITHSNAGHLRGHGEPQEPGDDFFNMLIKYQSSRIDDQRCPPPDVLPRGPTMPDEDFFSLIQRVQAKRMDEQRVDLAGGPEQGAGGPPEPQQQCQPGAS

binding [1] | binding [2] | Substance
binds | binds | Gαi3-FLAG, phosphotyrosinated (induced by EGF) (from UniProt P08753 1-354)
binds | binds | Gαi3-FLAG, non-phosphorylated (from UniProt P08753 1-354)
